Measurements: the supplement of paper PMC10032668
This is one part of the list. The list holds hits alone, and they repeat only in part.

By UniProt entry, the sequences of proteins in these tests, tags left out.
ATP6V1H, Q9UI12, UniProt Q9UI12, whole entry: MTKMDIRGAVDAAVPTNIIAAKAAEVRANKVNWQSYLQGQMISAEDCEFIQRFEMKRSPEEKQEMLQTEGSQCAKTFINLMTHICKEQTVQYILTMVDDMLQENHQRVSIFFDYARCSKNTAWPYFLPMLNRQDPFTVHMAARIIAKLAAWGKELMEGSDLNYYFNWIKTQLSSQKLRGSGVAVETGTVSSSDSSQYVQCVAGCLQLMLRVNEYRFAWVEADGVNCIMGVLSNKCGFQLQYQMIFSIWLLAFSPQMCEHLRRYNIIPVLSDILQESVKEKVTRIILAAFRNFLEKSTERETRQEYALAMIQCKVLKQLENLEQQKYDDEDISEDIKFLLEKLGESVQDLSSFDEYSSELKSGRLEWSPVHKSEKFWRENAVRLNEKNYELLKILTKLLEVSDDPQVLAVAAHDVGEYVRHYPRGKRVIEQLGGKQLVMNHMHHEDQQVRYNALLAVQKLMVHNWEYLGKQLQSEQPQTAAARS
HBA1, P69905, UniProt P69905, whole entry: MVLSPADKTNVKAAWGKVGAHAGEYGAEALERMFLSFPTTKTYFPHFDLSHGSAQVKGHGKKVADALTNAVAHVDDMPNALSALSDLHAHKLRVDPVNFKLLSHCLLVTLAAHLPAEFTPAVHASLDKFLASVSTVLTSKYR
INTS7, Q9NVH2, UniProt Q9NVH2, whole entry: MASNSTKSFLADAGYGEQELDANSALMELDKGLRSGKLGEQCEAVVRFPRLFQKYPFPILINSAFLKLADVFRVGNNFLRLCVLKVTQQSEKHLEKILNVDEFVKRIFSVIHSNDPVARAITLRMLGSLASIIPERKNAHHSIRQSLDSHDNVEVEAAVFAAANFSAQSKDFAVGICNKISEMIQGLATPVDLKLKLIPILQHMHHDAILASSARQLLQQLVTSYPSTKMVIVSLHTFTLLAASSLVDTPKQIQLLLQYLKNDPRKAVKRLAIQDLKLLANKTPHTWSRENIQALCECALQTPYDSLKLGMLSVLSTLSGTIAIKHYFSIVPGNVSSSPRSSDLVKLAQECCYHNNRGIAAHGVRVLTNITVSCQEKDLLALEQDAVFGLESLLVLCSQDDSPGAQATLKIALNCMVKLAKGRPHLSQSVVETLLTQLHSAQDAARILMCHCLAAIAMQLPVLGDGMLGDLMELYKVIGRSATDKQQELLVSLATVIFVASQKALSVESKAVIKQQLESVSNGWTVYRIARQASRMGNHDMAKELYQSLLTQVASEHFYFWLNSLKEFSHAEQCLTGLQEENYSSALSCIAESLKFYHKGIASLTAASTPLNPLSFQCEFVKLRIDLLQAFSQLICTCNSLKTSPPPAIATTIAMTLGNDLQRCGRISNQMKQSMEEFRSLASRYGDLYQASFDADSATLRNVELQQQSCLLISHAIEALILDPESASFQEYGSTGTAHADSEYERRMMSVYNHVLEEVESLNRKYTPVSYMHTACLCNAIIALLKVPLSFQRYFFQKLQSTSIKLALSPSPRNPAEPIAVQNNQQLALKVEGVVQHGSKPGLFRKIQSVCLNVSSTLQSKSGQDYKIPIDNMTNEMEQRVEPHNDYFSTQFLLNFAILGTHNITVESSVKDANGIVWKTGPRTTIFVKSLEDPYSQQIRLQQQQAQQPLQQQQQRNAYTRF
C3, P01024, UniProt P01024, whole entry: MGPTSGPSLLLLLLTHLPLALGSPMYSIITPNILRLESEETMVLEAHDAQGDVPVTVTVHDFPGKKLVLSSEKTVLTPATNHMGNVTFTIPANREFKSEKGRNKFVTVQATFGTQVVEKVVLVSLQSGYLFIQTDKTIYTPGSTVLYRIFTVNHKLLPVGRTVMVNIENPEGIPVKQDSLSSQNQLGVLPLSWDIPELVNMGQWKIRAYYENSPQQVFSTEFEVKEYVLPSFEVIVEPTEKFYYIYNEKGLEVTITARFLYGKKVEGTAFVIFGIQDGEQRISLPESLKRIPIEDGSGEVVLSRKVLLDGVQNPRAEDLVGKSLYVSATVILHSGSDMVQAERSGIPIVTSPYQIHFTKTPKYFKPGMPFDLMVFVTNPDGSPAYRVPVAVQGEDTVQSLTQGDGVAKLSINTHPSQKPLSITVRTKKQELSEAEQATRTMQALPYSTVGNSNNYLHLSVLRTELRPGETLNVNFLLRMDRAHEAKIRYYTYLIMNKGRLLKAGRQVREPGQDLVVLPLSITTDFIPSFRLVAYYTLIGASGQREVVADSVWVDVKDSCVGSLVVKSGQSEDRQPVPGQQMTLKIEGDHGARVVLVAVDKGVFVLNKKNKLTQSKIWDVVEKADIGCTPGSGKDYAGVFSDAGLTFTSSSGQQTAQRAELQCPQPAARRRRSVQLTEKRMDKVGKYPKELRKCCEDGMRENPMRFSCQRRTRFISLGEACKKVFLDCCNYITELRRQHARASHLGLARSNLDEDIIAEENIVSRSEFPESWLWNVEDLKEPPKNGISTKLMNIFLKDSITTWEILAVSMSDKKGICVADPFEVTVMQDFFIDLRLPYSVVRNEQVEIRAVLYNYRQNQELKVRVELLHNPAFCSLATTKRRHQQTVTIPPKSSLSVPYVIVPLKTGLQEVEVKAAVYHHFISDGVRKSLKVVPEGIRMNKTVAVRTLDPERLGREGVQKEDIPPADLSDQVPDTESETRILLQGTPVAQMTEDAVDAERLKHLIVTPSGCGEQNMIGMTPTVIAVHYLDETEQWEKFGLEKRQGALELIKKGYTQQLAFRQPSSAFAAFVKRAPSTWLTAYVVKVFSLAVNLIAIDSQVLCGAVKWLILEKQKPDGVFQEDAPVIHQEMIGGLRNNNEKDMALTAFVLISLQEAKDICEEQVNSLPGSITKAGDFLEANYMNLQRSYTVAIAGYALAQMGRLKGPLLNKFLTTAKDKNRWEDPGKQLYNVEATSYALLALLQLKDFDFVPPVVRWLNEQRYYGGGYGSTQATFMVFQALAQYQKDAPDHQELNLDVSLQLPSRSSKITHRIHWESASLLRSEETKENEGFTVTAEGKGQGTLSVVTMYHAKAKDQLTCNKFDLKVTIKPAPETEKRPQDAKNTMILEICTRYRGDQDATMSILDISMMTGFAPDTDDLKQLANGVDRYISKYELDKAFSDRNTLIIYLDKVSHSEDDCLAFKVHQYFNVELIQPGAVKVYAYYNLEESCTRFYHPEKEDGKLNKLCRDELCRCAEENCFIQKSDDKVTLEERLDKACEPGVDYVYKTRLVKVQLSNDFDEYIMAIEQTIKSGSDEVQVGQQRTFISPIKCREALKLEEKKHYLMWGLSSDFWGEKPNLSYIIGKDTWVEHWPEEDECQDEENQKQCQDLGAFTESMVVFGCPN
NDUFS7, O75251, UniProt O75251, whole entry: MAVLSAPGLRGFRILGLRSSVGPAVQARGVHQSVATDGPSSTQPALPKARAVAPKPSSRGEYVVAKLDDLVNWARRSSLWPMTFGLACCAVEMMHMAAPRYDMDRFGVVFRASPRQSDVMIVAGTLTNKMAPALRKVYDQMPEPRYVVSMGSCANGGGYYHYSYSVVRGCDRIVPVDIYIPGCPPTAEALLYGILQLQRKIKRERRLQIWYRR
NELFA, Q9H3P2, UniProt Q9H3P2, whole entry: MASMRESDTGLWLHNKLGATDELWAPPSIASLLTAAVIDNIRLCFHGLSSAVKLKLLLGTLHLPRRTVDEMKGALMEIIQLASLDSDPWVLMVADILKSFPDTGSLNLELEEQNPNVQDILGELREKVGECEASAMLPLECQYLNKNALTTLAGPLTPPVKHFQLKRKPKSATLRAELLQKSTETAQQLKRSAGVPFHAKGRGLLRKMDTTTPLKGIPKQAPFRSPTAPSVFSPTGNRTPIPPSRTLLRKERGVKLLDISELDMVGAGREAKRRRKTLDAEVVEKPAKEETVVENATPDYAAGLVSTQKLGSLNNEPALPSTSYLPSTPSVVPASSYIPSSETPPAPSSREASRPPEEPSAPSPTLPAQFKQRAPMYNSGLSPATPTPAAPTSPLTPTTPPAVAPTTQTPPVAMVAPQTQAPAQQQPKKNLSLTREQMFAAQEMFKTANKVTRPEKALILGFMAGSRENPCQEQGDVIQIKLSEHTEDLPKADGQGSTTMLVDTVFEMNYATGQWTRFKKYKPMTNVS
PIN1, Q13526, UniProt Q13526, whole entry: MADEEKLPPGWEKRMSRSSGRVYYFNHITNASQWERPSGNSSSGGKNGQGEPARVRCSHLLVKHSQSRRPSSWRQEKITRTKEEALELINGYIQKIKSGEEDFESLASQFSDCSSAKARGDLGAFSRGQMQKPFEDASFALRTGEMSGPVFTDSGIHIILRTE
TELO2, Q9Y4R8, UniProt Q9Y4R8, whole entry: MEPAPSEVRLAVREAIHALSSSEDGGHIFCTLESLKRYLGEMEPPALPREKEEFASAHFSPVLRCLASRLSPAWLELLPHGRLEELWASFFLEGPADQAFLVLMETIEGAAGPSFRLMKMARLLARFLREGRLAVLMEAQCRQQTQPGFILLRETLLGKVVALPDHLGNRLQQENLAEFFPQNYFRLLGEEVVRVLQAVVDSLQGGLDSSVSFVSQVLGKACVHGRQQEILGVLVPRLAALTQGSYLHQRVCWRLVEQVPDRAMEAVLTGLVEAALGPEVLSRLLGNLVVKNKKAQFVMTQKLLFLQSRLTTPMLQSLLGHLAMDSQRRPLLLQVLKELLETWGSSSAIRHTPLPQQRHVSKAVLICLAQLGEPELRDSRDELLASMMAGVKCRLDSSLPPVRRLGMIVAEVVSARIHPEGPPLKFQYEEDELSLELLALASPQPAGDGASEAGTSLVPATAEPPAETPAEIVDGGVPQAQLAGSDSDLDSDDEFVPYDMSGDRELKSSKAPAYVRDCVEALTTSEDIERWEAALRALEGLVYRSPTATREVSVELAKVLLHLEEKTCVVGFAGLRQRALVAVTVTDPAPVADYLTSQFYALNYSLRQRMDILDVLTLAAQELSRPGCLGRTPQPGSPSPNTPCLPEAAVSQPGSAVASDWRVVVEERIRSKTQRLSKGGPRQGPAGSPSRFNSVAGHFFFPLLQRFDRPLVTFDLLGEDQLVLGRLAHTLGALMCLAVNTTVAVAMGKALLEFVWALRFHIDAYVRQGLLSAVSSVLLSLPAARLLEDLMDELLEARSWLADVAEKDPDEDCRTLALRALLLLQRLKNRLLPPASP
TF, P02787, UniProt P02787, whole entry: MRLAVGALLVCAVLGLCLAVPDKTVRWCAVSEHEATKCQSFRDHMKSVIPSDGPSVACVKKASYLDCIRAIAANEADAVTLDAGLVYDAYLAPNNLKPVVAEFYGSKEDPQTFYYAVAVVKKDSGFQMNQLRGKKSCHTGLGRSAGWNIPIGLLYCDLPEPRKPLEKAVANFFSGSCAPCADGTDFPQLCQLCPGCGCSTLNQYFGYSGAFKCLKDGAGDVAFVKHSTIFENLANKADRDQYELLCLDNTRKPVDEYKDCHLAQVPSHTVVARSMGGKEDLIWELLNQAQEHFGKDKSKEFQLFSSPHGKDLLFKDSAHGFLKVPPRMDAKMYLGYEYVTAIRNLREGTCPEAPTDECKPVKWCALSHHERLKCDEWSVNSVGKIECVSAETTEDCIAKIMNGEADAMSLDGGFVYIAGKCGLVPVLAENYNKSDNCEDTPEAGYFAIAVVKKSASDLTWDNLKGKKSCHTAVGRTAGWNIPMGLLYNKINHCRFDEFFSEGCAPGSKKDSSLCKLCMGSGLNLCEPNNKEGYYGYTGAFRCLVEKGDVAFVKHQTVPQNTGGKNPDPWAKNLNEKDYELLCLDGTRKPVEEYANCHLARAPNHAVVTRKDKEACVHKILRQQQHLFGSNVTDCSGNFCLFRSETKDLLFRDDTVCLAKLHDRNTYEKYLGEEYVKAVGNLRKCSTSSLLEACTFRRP

Assays:
Experiment in all cases: PRISMA enrichment of interactor (LFQ) in peptide spot vs all other peptide spots (log2 fold change); higher = stronger / more specific binding of the interactor to the peptide
[1] = target: ACAA2, P42765
Method: (§1)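 PRISMA: 15-aa overlapping tiles (offset 8 aa) of 60 microproteins, plus SOS1/GLUT1 control peptides, were spot-synthesized on cellulose membranes in triplicate. Membranes were incubated with benzonase-treated HEK293T lysate, and bound proteins were identified by LC-MS/MS with LFQ. Enrichment is the log2 fold change of each protein in one spot versus all other spots. Only interactors passing the significance cutoff are listed.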

[2] = target: ARIH1, Q9Y4X5
Method: as §1

[3] = target: ASS1, P00966
Method: as §1

[4] = target: ATP6V1H, Q9UI12
Method: as §1

[5] = target: CSNK2A2, P19784
Method: as §1

[6] = target: DAP3, P51398
Method: as §1

[7] = target: ERLIN1, O75477
Method: as §1

[8] = target: GPAT4, Q86UL3
Method: as §1

[9] = target: GPATCH4, Q5T3I0
Method: as §1

[10] = target: GPBP1, Q86WP2
Method: as §1

[11] = target: GTF2I, P78347
Method: as §1

[12] = target: HBA1, P69905
Method: as §1

[13] = target: HBB, P68871
Method: as §1

[14] = target: HCFC1, P51610
Method: as §1

[15] = target: HERC2, O95714
Method: as §1

[16] = target: HPD, P32754
Method: as §1

[17] = target: INTS7, Q9NVH2
Method: as §1

[18] = target: KIF22, Q14807
Method: as §1

[19] = target: LSM4, Q9Y4Z0
Method: as §1

[20] = target: MRPL44, Q9H9J2
Method: as §1

[21] = target: MRPS21, P82921
Method: as §1

[22] = target: NUP155, O75694
Method: as §1

[23] = target: NUSAP1, Q9BXS6
Method: as §1

[24] = target: PDAP1, Q13442
Method: as §1

[25] = target: PRMT3, O60678
Method: as §1

[26] = target: RPF2, Q9H7B2
Method: as §1

[27] = target: SMU1, Q2TAY7
Method: as §1

[28] = target: TIA1, P31483
Method: as §1

[29] = target: TRPT1, Q86TN4
Method: as §1

[30] = target: NCDN, Q9UBB6
Method: as §1

[31] = target: RAVER1, Q8IY67
Method: as §1

[32] = target: SHROOM3, Q8TF72
Method: as §1

[33] = target: UQCRFS1, P47985
Method: as §1

[34] = target: ACACA, Q13085
Method: as §1

[35] = target: C1QBP, Q07021
Method: as §1

[36] = target: C3, P01024
Method: as §1

[37] = target: CHCHD2, Q9Y6H1
Method: as §1

[38] = target: HEATR3, Q7Z4Q2
Method: as §1

[39] = target: HK2, P52789
Method: as §1

[40] = target: NDUFS7, O75251
Method: as §1

[41] = target: NELFA, Q9H3P2
Method: as §1

[42] = target: NPM3, O75607
Method: as §1

[43] = target: OBSL1, O75147
Method: as §1

[44] = target: PIN1, Q13526
Method: as §1

[45] = target: REXO4, Q9GZR2
Method: as §1

[46] = target: RIC8A, Q9NPQ8
Method: as §1

[47] = target: SNX9, Q9Y5X1
Method: as §1

[48] = target: TALDO1, P37837
Method: as §1

[49] = target: TBC1D10B, Q4KMP7
Method: as §1

[50] = target: TELO2, Q9Y4R8
Method: as §1

[51] = target: TF, P02787
Method: as §1

## VMVPLVGLIHLGWYR [MKKS]
[1]
  PRISMA enrichment of interactor (log2): 5.7
[2]
  PRISMA enrichment of interactor (log2): 4.39
[3]
  PRISMA enrichment of interactor (log2): 4.43
[4]
  PRISMA enrichment of interactor (log2): 4.78
[5]
  PRISMA enrichment of interactor (log2): 6.12
[6]
  PRISMA enrichment of interactor (log2): 5.96
[7]
  PRISMA enrichment of interactor (log2): 6.35
[8]
  PRISMA enrichment of interactor (log2): 4.47
[9]
  PRISMA enrichment of interactor (log2): 4.87
[10]
  PRISMA enrichment of interactor (log2): 3.84
[11]
  PRISMA enrichment of interactor (log2): 5.65
[12]
  PRISMA enrichment of interactor (log2): 3.98
[13]
  PRISMA enrichment of interactor (log2): 4.42
[14]
  PRISMA enrichment of interactor (log2): 5.49
[15]
  PRISMA enrichment of interactor (log2): 5.9
[16]
  PRISMA enrichment of interactor (log2): 3.83
[17]
  PRISMA enrichment of interactor (log2): 4.98
[18]
  PRISMA enrichment of interactor (log2): 12.5
[19]
  PRISMA enrichment of interactor (log2): 5.29
[20]
  PRISMA enrichment of interactor (log2): 6.07
[21]
  PRISMA enrichment of interactor (log2): 5.13
[22]
  PRISMA enrichment of interactor (log2): 4.89
[23]
  PRISMA enrichment of interactor (log2): 5.98
[24]
  PRISMA enrichment of interactor (log2): 5.63
[25]
  PRISMA enrichment of interactor (log2): 4.79
[26]
  PRISMA enrichment of interactor (log2): 4.31
[27]
  PRISMA enrichment of interactor (log2): 4.48
[28]
  PRISMA enrichment of interactor (log2): 4.27
[29]
  PRISMA enrichment of interactor (log2): 3.86

## FLKYVLLFFSLHVEH [HAND2-AS1]
[1]
  PRISMA enrichment of interactor (log2): 4.31
[17]
  PRISMA enrichment of interactor (log2): 6.72
[30]
  PRISMA enrichment of interactor (log2): 5.74
[31]
  PRISMA enrichment of interactor (log2): 5.12
[32]
  PRISMA enrichment of interactor (log2): 8.8
[33]
  PRISMA enrichment of interactor (log2): 5.53

## RRRPPPALNAMSLGP [RNF10]
[34]
  PRISMA enrichment of interactor (log2): 4.67
[35]
  PRISMA enrichment of interactor (log2): 6.72
[36]
  PRISMA enrichment of interactor (log2): 5.3
[37]
  PRISMA enrichment of interactor (log2): 4.36
[38]
  PRISMA enrichment of interactor (log2): 5.34
[39]
  PRISMA enrichment of interactor (log2): 5.16
[40]
  PRISMA enrichment of interactor (log2): 7.66
[41]
  PRISMA enrichment of interactor (log2): 3.93
[42]
  PRISMA enrichment of interactor (log2): 3.98
[43]
  PRISMA enrichment of interactor (log2): 7
[44]
  PRISMA enrichment of interactor (log2): 4.53
[45]
  PRISMA enrichment of interactor (log2): 7.38
[46]
  PRISMA enrichment of interactor (log2): 4.67
[47]
  PRISMA enrichment of interactor (log2): 4.28
[48]
  PRISMA enrichment of interactor (log2): 4.37
[49]
  PRISMA enrichment of interactor (log2): 4.52
[50]
  PRISMA enrichment of interactor (log2): 5.06
[51]
  PRISMA enrichment of interactor (log2): 5.23
